Patent publication US12246081B2, “Deodorant compositions” (Conopco, Inc., priority 2017, dated 2025)
At least one structure is not confirmed: it was looked up by name or label, or the drawing left a doubt.

System: S. hominis B10 C-S β lyase
Assay: Transformation of Cys-3M3SH to 3M3SH by purified S. hominis B10 C-S β lyase
Format: biochemical, Staphylococcus hominis
Settings: material concentration = 2 millimolar; 2 mM Cys-3M3SH; 35° C. for 24 hours; relative to control without compound; listed as EX18
Description: The compounds identified by present invention represent a new class of deodorant actives that can be screened by the method disclosed herein. The method uses an odour-generating C-S β-lyase, in particular S. hominis B10 C-S β-lyase. In accordance with the procedure detailed in Example 1, the medium of the screening method comprises a 20 millimolar concentration of the compound to be screened. The medium further comprises S. hominis C-S β-lyase enzyme and 2 millimolar Cys-3M3SH. Following an incubation at 35° C. for a period of 24 hours, the reduction in 3M3SH released by S. hominis C-S β-lyase from Cys-3M3SH is measured. Herein, the inhibition of 3M3SH level is relative to a control without any compound being screened. In preferred embodiments, following the procedure detailed in Example 1, the medium comprises a 10 millimolar concentration of compound to be screened. […]
Glass reaction tubes were set up, each containing 2 mM Cys-3M3SH (dissolved in M9 salts), 50 μM pyridoxal phosphate, purified S. hominis B10 C-S β lyase to a final concentration of 10 μg/ml, and M9 salts (or, where appropriate, a test material dissolved in M9 salts at, for example, 20 mM) to adjust the volume to 500 μl. […] Absorbance (A412) values, which correlate with the concentration of 3M3SH present, were recorded using a spectrophotometer. […]

In the case of CC(C)(C)OC(=O)N1[C@H](C(=O)O)COC1(C)C [EX15, (4S)-3-(tert-Butoxycarbonyl)-2,2-dimethyl-1,3-oxazolidine-4-carboxylic acid], the “% inhibition” value is reported as 31.4%.
